PubChem BioAssay AID1259425 – University of Nebraska Medical Center – 2018
The whole screen tested about 14,000 reagents; shown is a random part of them. The record does not give: the time to read-out.

- Aim: 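Seek colon cancer weak points whose silencing resembles KSR1 loss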 (primary screen)
- Cell system: HCT116 human colon cancer cells
- Knock-down reagent: siRNA pool against human genes, 50 nM siRNA
- Measurement: 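mRNA of six signature genes measured together by branched-DNA assay after 50 nM siRNA pool, blank removed, divided by geometric mean of two housekeeping genes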
- Direction: BNIP3L mRNA: higher = more BNIP3L transcript after knockdown; NDRG1 mRNA: higher = more NDRG1 transcript after knockdown; BNIP3 mRNA: higher = more BNIP3 transcript after knockdown; ALDOC mRNA: higher = more ALDOC transcript after knockdown; ACSL5 mRNA: higher = more ACSL5 transcript after knockdown

| gene symbol | BNIP3L mRNA, set 1 | NDRG1 mRNA, set 1 | BNIP3 mRNA, set 1 | ALDOC mRNA, set 1 | ACSL5 mRNA, set 1 |
| --- | --- | --- | --- | --- | --- |
| LOXL1 (GeneID 4016) | 0.208 | 0.582 | 0.223 | 0.0475 | 0.256 |
| MED29 (GeneID 55588) | 0.069 | 0.172 | 0.264 | 0.0204 | 0.0556 |
| TOMM70 (GeneID 9868) | 0.155 | 0.152 | 0.374 | 0.000658 | 0.133 |
| SCNN1B (GeneID 6338) | 0.214 | 0.18 | 0.284 | 0.0278 | 0.218 |
| TPSG1 (GeneID 25823) | 0.0799 | 0.127 | 0.574 | 0.0197 | 0.128 |
| PSMC1 (GeneID 5700) | 0.171 | 1.94 | 0.356 | 0.0221 | 0.155 |
| TCP11 (GeneID 6954) | 0.125 | 0.299 | 0.297 | 0.0473 | 0.0827 |
| LINC00308 (GeneID 54143) | 0.156 | 0.0887 | 0.128 | 0.0182 | 0.145 |
| PFDN5 (GeneID 5204) | 0.088 | 0.414 | 0.424 | 0.0137 | 0.173 |
| BCL10 (GeneID 8915) | 0.061 | 0.392 | 0.26 | 0.0303 | 0.225 |
| THSD7A (GeneID 221981) | 0.0843 | 0.481 | 0.382 | 0.012 | 0.23 |
| MACF1 (GeneID 23499) | 0.0768 | 0.152 | 0.122 | 0.0104 | 0.303 |
| MUC1 (GeneID 4582) | 0.158 | 1.46 | 0.326 | 0.0866 | 0.251 |
| ZNF75A (GeneID 7627) | 0.134 | 0.214 | 0.259 | 0.0319 | 0.321 |
| CYP4F12 (GeneID 66002) | 0.15 | 0.612 | 0.304 | 0.0383 | 0.374 |
| C2orf42 (GeneID 54980) | 0.136 | 0.149 | 0.266 | 0.0148 | 0.167 |
| TAL1 (GeneID 6886) | 0.0651 | 0.108 | 0.295 | 0.016 | 0.142 |
| GPR45 (GeneID 11250) | 0.142 | 0.341 | 0.359 | 0.0562 | 0.252 |
| MRC1 (GeneID 4360) | 0.0866 | 0.146 | 0.144 | 0.03 | 0.182 |
| PARP8 (GeneID 79668) | 0.187 | 0.283 | 0.41 | 0.065 | 0.409 |

Targets listed so far whose target name starts with T or t (5):
| gene symbol | BNIP3L mRNA, set 1 | NDRG1 mRNA, set 1 | BNIP3 mRNA, set 1 | ALDOC mRNA, set 1 | ACSL5 mRNA, set 1 |
| --- | --- | --- | --- | --- | --- |
| TOMM70 (GeneID 9868) | 0.155 | 0.152 | 0.374 | 0.000658 | 0.133 |
| TPSG1 (GeneID 25823) | 0.0799 | 0.127 | 0.574 | 0.0197 | 0.128 |
| TCP11 (GeneID 6954) | 0.125 | 0.299 | 0.297 | 0.0473 | 0.0827 |
| THSD7A (GeneID 221981) | 0.0843 | 0.481 | 0.382 | 0.012 | 0.23 |
| TAL1 (GeneID 6886) | 0.0651 | 0.108 | 0.295 | 0.016 | 0.142 |
